# Reference: the supplement of paper PMC7666118
# The chains behind the UniProt entries cited, without tags or fusion partners. Where a name states a change or a piece, a line headed by the entry shows the natural chain unless it says otherwise.
# UniProt Q58EX7: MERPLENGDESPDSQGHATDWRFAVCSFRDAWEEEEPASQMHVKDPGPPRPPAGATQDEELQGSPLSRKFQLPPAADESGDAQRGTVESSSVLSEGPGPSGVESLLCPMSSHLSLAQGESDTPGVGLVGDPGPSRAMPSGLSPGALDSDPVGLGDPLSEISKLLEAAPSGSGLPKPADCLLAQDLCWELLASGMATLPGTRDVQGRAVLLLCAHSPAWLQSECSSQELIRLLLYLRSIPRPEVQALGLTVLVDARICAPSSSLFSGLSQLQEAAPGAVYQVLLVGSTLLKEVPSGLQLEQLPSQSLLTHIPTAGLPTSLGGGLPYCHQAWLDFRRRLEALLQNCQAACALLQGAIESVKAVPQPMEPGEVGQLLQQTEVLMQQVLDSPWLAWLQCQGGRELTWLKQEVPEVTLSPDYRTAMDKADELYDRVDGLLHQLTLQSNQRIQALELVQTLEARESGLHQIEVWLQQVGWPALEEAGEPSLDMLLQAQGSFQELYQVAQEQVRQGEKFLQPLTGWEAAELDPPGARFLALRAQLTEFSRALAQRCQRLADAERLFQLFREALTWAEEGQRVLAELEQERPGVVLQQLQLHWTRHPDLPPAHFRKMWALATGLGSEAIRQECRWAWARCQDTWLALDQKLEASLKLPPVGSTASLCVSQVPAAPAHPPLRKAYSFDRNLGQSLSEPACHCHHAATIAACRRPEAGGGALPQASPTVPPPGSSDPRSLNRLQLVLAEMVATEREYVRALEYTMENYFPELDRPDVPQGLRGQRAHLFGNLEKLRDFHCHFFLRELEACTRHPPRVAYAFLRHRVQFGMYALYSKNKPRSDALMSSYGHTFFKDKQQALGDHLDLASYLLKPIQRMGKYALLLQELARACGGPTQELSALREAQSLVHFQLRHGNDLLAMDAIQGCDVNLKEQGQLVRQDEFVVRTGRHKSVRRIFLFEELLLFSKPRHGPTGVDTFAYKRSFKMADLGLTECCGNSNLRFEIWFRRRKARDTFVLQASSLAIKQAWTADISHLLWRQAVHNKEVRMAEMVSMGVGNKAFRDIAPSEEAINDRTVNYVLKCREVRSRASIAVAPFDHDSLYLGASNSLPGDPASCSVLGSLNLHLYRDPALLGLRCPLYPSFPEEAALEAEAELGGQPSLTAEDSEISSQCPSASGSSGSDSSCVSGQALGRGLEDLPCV
# UniProt P41247: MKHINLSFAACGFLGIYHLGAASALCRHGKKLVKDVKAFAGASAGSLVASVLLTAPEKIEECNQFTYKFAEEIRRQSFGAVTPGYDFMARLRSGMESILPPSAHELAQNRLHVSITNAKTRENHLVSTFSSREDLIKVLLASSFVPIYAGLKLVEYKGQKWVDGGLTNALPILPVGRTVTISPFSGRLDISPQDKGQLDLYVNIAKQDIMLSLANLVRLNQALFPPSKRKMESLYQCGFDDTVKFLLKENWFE
# UniProt Q9H307: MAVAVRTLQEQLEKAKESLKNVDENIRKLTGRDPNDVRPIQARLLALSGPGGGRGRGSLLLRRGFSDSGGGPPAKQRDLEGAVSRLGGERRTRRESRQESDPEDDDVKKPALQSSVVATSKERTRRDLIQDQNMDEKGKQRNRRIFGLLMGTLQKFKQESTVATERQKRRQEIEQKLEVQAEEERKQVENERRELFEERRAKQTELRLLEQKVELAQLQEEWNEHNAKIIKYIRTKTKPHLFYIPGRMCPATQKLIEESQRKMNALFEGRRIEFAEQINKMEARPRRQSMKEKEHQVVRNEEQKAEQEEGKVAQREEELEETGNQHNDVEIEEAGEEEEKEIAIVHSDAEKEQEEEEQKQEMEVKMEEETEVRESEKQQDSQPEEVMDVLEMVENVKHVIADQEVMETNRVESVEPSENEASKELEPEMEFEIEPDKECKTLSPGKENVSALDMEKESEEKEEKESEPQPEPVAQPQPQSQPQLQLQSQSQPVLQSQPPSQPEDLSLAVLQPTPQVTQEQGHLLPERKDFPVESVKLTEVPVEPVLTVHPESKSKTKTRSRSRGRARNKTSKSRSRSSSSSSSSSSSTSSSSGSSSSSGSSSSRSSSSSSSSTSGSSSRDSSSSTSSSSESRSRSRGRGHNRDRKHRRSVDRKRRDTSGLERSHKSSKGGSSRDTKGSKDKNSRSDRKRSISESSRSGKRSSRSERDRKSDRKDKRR
# UniProt Q9NUX5: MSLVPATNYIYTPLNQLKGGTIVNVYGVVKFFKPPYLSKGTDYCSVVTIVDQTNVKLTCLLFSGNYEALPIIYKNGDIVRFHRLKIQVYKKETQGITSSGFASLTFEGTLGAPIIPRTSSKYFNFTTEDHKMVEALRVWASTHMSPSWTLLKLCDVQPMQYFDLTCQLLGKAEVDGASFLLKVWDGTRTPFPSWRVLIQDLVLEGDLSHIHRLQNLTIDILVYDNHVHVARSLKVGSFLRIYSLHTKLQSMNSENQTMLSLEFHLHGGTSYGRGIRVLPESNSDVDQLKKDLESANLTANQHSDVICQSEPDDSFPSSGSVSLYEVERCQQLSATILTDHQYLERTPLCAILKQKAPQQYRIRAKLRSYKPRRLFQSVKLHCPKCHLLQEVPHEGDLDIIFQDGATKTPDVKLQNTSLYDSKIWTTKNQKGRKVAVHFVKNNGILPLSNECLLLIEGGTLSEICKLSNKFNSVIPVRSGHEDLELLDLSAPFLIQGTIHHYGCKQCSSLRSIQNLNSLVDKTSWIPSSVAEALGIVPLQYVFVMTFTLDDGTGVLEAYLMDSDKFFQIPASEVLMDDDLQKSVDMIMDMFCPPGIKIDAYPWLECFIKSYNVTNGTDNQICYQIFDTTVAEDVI
# UniProt O43447: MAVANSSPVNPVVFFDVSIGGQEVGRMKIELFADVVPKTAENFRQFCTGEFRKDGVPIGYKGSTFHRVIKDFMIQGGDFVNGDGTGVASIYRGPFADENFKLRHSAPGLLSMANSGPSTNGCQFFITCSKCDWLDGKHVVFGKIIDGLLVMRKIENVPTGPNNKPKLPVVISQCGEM
# UniProt Q13427: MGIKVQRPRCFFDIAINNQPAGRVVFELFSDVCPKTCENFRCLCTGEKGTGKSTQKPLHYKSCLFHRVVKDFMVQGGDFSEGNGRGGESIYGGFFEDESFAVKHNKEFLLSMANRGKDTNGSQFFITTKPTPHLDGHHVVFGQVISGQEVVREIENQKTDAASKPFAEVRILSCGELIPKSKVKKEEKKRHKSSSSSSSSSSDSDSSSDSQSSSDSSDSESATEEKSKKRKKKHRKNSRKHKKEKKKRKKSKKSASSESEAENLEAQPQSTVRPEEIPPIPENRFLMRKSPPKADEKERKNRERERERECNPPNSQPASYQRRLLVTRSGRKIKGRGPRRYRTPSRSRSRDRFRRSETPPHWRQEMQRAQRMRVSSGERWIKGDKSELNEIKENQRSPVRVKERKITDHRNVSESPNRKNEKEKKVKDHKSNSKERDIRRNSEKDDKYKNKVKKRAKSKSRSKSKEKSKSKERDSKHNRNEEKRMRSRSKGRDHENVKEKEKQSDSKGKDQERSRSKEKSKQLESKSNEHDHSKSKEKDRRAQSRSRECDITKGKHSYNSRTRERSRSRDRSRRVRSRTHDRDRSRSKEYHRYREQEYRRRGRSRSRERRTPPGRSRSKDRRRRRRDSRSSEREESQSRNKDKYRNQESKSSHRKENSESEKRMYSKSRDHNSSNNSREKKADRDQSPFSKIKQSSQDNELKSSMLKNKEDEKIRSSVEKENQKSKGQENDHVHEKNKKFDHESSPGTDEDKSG
# UniProt P23284: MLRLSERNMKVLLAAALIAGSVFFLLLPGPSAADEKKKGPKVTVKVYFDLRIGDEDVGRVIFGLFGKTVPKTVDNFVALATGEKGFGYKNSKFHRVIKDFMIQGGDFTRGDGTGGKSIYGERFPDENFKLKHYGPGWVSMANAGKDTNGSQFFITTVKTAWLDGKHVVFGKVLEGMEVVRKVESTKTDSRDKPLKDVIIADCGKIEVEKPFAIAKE
# UniProt Q9UHN1: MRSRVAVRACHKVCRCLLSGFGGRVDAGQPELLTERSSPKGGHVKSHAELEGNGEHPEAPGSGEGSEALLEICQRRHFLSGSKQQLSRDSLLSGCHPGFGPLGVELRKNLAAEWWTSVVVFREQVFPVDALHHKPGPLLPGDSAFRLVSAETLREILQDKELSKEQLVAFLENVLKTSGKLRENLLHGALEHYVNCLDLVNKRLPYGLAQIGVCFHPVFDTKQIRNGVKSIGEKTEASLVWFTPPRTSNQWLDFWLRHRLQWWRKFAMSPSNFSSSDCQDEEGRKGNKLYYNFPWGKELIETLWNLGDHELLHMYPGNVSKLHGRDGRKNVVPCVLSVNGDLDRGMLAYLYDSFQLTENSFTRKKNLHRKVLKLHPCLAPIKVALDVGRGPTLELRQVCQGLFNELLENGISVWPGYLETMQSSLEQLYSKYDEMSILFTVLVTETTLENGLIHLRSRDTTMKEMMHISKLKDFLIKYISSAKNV
# UniProt Q9NY27: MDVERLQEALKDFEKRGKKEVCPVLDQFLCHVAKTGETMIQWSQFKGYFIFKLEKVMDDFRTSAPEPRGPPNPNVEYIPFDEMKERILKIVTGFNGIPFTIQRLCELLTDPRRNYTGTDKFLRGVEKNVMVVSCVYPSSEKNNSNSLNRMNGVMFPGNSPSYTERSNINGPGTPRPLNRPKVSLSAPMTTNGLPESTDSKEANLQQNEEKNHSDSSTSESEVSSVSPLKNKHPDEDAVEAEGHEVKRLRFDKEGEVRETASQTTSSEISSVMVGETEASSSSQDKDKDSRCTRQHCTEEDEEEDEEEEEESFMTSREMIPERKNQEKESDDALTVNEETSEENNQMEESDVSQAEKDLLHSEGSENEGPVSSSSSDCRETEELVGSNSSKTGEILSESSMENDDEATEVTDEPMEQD
# UniProt P37287: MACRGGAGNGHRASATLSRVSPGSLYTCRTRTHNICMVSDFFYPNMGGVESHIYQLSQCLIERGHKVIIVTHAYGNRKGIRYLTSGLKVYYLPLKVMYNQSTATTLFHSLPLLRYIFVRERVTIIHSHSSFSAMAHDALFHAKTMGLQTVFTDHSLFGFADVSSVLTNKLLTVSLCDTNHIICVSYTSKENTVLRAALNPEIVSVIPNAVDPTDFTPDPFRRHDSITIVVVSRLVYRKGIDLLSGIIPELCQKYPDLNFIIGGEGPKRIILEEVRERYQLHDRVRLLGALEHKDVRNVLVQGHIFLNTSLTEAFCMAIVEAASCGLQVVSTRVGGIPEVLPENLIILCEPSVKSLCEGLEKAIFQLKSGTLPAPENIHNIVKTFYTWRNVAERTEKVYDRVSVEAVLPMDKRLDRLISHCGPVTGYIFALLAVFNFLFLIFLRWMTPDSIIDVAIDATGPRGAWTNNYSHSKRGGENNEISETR
# UniProt Q5SGD2: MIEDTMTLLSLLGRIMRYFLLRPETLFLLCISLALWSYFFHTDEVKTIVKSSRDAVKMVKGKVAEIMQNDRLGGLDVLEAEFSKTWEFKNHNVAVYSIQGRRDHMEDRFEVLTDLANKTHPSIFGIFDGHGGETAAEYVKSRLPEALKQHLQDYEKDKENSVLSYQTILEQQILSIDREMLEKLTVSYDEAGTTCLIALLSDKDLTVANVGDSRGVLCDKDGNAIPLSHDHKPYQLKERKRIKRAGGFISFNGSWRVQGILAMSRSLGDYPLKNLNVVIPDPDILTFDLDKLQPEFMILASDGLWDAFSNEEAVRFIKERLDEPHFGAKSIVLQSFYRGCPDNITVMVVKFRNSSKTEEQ
# UniProt Q8IZ21: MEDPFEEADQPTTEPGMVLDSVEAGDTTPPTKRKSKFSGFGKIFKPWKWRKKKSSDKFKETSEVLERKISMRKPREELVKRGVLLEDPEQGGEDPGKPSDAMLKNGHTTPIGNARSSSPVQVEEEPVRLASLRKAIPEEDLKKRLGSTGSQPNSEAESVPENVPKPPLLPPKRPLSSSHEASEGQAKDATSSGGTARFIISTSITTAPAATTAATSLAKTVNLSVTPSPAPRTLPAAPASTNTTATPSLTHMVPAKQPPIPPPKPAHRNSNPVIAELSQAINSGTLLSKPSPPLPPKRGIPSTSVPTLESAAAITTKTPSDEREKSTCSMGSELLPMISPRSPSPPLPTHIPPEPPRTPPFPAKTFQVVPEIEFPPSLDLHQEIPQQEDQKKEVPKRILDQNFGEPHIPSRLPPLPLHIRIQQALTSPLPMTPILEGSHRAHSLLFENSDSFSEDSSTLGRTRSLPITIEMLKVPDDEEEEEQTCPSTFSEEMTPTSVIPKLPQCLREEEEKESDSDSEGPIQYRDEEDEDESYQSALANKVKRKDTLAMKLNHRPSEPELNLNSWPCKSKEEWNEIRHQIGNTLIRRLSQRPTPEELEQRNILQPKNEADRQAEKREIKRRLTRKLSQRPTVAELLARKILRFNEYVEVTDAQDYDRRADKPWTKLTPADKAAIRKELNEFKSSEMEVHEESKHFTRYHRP
# UniProt P41236: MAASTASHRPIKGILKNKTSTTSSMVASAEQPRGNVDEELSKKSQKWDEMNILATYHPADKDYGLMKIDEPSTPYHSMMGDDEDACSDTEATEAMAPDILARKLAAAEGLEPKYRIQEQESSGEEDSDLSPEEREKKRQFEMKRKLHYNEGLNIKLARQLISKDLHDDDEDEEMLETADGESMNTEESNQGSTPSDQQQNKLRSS
# The other results are listed elsewhere or left out.
# Compound: COc1ccc(Cn2ccc3ccc(C(=O)NO)cc32)cc1
# Assay: dose-dependent thermal stabilisation call (2D-TPP, DLPTP, 10% FDR) (binary (1 = stabilised)); higher = stabilised by the compound
# Details: system: HL-60 intact cells; concentration range 0.04-10 µM
row,Target,dose-dependent thermal stabilisation call
1,PHF5A (UniProt Q7RTV0),inactive: 0
2,PPAT (UniProt Q06203),inactive: 0
3,PLEKHG4 (UniProt Q58EX7),inactive: 0
4,POLR2A (UniProt P24928),inactive: 0
5,PNPLA4 (UniProt P41247),inactive: 0
6,PIGT (UniProt Q969N2),inactive: 0
7,PNN (UniProt Q9H307),inactive: 0
8,PLXNB2 (UniProt O15031),inactive: 0
9,POT1 (UniProt Q9NUX5),inactive: 0
10,PPIH (UniProt O43447),inactive: 0
11,PRELID1 (UniProt Q9Y255),inactive: 0
12,PIK3C2A (UniProt O00443),inactive: 0
13,POLR2B (UniProt P30876),inactive: 0
14,PIGB (UniProt Q92521),inactive: 0
15,PRMT1 (UniProt Q99873),inactive: 0
16,POP4 (UniProt O95707),inactive: 0
17,PRKCSH (UniProt P14314),inactive: 0
18,PPIG (UniProt Q13427),inactive: 0
19,POLR2J2 (UniProt Q9GZM3),inactive: 0

row,Target,dose-dependent thermal stabilisation call
1,PHACTR2 (UniProt O75167),inactive: 0
2,PM20D2 (UniProt Q8IYS1),inactive: 0
3,PPIB (UniProt P23284),inactive: 0
4,PLCB3 (UniProt Q01970),inactive: 0
5,POLG2 (UniProt Q9UHN1),inactive: 0
6,PRMT10 (UniProt Q6P2P2),inactive: 0
7,PNPT1 (UniProt Q8TCS8),inactive: 0
8,PREX1 (UniProt Q8TCU6),inactive: 0
9,PLK1 (UniProt P53350),inactive: 0
10,POLR2E (UniProt P19388),inactive: 0
11,PMPCA (UniProt Q10713),inactive: 0
12,PPP4R2 (UniProt Q9NY27),inactive: 0
13,PIGA (UniProt P37287),inactive: 0
14,POM121 (UniProt Q96HA1),inactive: 0
15,PRIM2 (UniProt P49643),inactive: 0
16,PPM1L (UniProt Q5SGD2),inactive: 0
17,PGM2L1 (UniProt Q6PCE3),inactive: 0
18,PHACTR4 (UniProt Q8IZ21),inactive: 0
19,PPP1R2 (UniProt P41236),active: 1

# Part of the list above, with tabs:
row	Target	dose-dependent thermal stabilisation call
17	PGM2L1 (UniProt Q6PCE3)	inactive: 0
18	PHACTR4 (UniProt Q8IZ21)	inactive: 0
